Results published in patent US5317014A (priority 1991, dated 1994).

Test: general procedure: solution-phase peptide synthesis; DCC/HOBT

With “Cyclo(Abo--Asp)--trp(CHO)--Phe--N(CH3)CH2 C6 H5” the step yield (coupling step) was 64%.

“Cyclo(Abo--Asp)--trp(CO(CH2)6 NH2, HCl)--Phe--N(CH3)CH2 C6 H5” gave a step yield (late stage modification step, hydrochloride) of 52%.
